Assay results published in publication PMC12622526.

Amino acid sequences for entries named in this document (tags omitted).
UniProt P60953: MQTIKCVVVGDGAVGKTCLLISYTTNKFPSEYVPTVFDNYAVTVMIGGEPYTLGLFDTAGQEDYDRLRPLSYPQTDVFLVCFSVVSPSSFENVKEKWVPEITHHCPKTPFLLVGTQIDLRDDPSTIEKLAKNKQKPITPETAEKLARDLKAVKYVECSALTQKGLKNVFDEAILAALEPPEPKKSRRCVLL
UniProt P46940: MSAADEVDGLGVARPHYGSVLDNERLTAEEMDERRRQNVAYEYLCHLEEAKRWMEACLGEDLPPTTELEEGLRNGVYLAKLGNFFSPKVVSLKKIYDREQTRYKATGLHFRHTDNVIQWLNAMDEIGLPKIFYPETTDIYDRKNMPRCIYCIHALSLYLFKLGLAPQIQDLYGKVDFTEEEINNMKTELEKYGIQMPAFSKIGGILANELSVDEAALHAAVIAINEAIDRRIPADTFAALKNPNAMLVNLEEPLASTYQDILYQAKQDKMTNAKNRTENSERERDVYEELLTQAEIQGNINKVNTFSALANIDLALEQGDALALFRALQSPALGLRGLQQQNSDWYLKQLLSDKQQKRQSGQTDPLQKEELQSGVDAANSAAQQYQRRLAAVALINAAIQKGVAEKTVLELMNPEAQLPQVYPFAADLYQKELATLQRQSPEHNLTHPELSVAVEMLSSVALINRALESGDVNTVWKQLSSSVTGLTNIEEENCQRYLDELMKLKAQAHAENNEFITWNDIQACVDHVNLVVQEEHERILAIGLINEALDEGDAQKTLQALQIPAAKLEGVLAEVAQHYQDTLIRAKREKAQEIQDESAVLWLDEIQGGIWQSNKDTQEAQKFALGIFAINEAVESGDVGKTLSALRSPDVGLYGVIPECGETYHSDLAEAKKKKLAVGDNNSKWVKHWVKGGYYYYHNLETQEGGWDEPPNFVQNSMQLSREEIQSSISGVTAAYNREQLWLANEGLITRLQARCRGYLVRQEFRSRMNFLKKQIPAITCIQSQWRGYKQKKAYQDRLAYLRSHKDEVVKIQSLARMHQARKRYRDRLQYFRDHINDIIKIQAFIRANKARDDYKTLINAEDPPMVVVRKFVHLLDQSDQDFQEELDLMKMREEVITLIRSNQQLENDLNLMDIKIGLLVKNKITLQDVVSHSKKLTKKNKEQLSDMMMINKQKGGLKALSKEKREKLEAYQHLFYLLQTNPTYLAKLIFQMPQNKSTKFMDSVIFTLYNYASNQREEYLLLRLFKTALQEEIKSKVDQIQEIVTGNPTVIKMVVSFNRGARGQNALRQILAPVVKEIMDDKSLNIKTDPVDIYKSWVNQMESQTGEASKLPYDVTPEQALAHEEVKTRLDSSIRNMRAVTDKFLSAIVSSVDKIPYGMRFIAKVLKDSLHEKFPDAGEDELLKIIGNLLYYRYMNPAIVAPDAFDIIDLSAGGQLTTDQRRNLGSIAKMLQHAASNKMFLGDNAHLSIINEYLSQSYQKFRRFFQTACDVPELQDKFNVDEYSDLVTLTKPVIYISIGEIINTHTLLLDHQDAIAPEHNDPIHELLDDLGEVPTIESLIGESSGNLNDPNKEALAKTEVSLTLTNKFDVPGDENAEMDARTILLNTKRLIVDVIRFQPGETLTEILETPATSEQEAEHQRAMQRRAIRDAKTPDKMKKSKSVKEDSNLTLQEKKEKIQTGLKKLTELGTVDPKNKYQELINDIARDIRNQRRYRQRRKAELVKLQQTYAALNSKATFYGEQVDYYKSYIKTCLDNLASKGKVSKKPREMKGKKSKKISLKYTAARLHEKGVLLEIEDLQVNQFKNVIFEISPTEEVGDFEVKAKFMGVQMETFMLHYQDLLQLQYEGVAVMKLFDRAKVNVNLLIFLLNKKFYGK
UniProt Q15811: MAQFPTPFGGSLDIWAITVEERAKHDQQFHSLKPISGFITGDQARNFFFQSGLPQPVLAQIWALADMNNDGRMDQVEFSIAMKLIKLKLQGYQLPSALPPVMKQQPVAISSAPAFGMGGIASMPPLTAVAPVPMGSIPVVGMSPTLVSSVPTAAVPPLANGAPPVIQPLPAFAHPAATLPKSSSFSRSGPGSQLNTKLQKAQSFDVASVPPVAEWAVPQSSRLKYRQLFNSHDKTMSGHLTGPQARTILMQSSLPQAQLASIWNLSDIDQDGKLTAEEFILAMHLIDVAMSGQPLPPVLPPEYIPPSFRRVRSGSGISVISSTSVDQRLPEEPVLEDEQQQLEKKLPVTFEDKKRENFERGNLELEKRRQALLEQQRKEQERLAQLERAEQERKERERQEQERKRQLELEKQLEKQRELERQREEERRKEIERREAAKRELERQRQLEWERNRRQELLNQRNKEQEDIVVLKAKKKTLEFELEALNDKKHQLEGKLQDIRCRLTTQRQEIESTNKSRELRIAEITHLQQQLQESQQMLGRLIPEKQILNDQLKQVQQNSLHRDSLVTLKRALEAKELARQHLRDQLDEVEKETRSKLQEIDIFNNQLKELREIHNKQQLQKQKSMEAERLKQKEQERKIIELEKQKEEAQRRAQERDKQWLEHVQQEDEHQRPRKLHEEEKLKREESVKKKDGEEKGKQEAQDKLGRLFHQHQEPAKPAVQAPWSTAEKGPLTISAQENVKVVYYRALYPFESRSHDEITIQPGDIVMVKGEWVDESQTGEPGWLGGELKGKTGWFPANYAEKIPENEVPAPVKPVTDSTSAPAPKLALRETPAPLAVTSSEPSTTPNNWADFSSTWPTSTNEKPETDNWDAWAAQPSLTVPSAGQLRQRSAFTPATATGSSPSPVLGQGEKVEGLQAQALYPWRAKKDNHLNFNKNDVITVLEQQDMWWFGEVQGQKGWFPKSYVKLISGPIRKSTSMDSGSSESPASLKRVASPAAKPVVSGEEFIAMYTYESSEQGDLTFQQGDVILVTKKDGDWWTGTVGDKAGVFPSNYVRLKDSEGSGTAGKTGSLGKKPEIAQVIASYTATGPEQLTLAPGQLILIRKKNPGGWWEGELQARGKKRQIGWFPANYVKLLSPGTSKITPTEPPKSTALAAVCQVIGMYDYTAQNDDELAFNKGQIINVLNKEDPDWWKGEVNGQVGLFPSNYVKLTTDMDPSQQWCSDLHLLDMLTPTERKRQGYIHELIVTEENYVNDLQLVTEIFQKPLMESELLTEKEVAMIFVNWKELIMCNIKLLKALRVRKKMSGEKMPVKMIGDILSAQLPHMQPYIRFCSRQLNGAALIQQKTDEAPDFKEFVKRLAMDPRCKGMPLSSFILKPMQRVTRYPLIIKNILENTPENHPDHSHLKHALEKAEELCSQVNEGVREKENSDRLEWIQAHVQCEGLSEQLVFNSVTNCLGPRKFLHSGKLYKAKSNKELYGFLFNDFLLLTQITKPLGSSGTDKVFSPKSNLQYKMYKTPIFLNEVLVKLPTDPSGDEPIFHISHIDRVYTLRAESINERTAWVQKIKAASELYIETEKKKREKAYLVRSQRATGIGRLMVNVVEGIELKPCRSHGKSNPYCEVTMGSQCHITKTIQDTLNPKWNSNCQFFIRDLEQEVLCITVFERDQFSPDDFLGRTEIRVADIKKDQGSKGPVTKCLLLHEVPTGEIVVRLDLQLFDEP

target: COA4‐Flag (human cytochrome c oxidase assembly factor 4), transfected in A549 cells (human) (UniProt Q9NYJ1); assay: affinity purification with mass spectrometry; A549 cells transfected with Flag‐COA4 for 48 h; anti‐FLAG immunoprecipitation (Pierce Co‐IP Kit), SDS‐PAGE bands analysed by LC‐MS/MS

binding, binds:
CDC42, endogenous (from UniProt P60953 1-191)
IQGAP1 (from UniProt P46940 1-1657)
ITSN1 (from UniProt Q15811 1-1721)

No constants are given. Whether binding was seen depends on the method and setting. Binding seen in cells or lysates may run through a third protein. Here binding means that the protein was enriched with, or labelled near, the bait; the list need not be complete. Where a sequence is shown, tags or fusion partners need not be part of it.
